Assay results taken from patent US20240400659A1.
These are yes or no findings as the source states them, for the method shown. Some results given as binding are weak or reduced against the parent protein; the word gives no strength.

Chains of the proteins cited; added tags and fusions are not shown. Residues count along the entry.
UniProt Q99523, residues 78-755: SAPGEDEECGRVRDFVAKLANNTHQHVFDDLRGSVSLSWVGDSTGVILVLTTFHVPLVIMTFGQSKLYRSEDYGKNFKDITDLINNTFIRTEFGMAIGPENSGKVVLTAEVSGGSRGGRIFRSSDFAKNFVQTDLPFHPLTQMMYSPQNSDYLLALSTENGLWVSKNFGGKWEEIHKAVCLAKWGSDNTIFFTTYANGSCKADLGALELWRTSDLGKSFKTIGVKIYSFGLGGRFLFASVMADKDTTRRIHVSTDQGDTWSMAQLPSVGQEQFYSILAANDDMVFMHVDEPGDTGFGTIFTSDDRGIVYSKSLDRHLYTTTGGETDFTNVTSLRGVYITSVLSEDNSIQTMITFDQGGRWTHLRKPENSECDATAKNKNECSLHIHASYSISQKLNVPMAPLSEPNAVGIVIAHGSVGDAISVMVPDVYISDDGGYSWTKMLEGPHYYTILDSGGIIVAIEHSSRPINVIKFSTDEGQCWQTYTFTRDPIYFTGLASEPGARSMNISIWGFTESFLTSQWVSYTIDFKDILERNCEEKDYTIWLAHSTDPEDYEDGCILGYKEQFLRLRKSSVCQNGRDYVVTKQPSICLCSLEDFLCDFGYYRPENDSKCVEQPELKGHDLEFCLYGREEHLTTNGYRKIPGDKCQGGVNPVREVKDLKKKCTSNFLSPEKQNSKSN

Columns and labels:
[1] = molecular target: very low-density lipoprotein receptor (UniProt P98155); test: pH affinity ELISA, coated target, FIG. 3C
[2] = molecular target: very low-density lipoprotein receptor (UniProt P98155); test: pH affinity ELISA, coated target (Example 13)
Sortilin [3] = molecular target: Sortilin (UniProt Q99523); test: pH affinity ELISA, coated target, FIG. 3D
Sortilin [4] = molecular target: Sortilin (UniProt Q99523); test: pH affinity ELISA, coated target (Example 13)
Sortilin [5] = molecular target: Sortilin (UniProt Q99523); test: pH affinity ELISA, coated target

Measured: binding

Apolipoprotein E3 (from UniProt P02649 19-317) (ligand)
binds: [1] | [2]

Apolipoprotein E2 (from UniProt P02649 19-317) (ligand)
binds: Sortilin [3] | Sortilin [4]

Apolipoprotein E4 (from UniProt P02649 19-317) (ligand)
binds: all assays above
